Data taken from US12692532B2 (ETH ZURICH, priority 2019, dated 2026).

Key:
[1] = general procedure: Fmoc solid-phase peptide synthesis; Rink amide ChemMatrix resin (~0.5 mmol/g); HATU / i-Pr2NEt; details: whole synthesis, UV 214 nm
[2] = general procedure: Fmoc solid-phase peptide synthesis; Rink amide resin; HATU / i-Pr2NEt; details: whole synthesis, UV 214 nm

1-Ahx-[ProProGly]7—NH2
final HPLC purity [1]: >99%

1-[ProHypGly]3-AopProGly-[ProHypGly]3—NH2
final HPLC purity [1]: >97%

MRA_3069-Ahx-(ChaR)3—NH2
final HPLC purity [2]: >95%

PB-Ahx-(ChaR)3—NH2
final HPLC purity [2]: >99%
